Data published in the supplement of paper PMC10373366.
Where a name gives a salt, the structure may show the parent alone. Some of the results follow. Many values rest on one well or one pass, so single values are uncertain.

Columns and labels:
[1] = tested on: patient-derived ovarian cancer cells (PDC); assay: cell growth inhibition ratio vs untreated control (CCK8); higher = stronger inhibition of cell viability; conditions: 10 µM; 48 h
Procedure: (§1)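 Natural product library (Topscience) screened at 10 µM final concentration for 48 h on ovarian cancer A2780 cells and patient-derived ovarian cancer cells (PDC) in 96-well plates; viability read by CCK8 and reported as inhibition ratio (%) relative to untreated control. Single-dose primary screen.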

A2780 = assay: as above; conditions: 10 µM; 48 h
Procedure: as §1

| SMILES | cell growth inhibition ratio [1] | cell growth inhibition ratio (A2780) |
| --- | --- | --- |
| CCO[C@H]1O[C@@H]2O[C@@]3(C)CC[C@H]4[C@H](C)CC[C@@H]([C@H]1C)[C@@]24OO3 [Arteether] | 0.696% | – |
| CCC1=C[C@H]2CN3CCc4c([nH]c5ccccc45)[C@](C(=O)OC)(C2)[C@H]13 [Catharanthine] | -1.01% | -1.28% |
| COc1cc(C(=O)O[C@H]2[C@@H]3C=CO[C@@H](O[C@@H]4O[C@H](CO)[C@@H](O)[C@H](O)[C@H]4O)[C@@H]3[C@@]3(CO)O[C@@H]23)ccc1O [Picroside II] | -11.4% | 13.6% |
| O=C1C[C@@H]2OCC=C3CN4CC[C@]56c7ccccc7N1[C@H]5[C@H]2[C@H]3C[C@H]46 [Strychnine Sulfate] | 11% | 15.7% |
